Our source for the binding values is PMC5732205.

Amino acid sequences for entries named in this document (tags omitted). Residues count along the entry.
UniProt P05106, residues 27-788: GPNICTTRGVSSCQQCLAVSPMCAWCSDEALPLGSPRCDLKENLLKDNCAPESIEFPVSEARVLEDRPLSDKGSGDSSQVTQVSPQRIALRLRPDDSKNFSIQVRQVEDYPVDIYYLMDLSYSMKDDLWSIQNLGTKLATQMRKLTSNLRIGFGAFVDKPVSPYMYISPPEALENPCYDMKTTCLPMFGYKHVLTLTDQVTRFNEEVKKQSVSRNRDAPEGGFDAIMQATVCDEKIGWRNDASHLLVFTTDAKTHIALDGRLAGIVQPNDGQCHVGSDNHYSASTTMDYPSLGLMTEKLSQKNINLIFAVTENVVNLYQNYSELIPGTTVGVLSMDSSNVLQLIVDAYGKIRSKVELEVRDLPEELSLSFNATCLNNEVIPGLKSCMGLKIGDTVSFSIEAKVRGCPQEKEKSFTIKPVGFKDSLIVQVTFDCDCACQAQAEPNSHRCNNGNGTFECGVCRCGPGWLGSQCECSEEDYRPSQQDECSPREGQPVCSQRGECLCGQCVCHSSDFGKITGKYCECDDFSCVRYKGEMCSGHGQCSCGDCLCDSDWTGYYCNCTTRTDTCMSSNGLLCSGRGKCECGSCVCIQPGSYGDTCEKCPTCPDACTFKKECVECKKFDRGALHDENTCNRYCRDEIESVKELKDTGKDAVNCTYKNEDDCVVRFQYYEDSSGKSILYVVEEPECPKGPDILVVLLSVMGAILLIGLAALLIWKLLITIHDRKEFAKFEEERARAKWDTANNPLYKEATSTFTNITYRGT
UniProt P26038: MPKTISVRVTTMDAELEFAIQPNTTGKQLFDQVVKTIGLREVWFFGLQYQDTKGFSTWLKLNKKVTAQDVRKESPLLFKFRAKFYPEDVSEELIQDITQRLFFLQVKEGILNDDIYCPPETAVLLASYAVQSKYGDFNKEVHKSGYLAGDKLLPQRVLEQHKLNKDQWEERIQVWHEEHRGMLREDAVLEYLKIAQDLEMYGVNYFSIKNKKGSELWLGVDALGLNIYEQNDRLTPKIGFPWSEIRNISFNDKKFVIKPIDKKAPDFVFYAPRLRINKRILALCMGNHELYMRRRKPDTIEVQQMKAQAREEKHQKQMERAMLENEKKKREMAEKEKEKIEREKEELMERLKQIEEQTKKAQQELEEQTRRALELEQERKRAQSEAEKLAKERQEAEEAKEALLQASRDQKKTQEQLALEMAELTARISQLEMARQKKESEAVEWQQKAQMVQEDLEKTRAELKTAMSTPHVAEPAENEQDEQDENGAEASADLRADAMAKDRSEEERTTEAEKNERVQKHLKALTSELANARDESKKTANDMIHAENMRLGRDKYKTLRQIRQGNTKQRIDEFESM
UniProt P35240: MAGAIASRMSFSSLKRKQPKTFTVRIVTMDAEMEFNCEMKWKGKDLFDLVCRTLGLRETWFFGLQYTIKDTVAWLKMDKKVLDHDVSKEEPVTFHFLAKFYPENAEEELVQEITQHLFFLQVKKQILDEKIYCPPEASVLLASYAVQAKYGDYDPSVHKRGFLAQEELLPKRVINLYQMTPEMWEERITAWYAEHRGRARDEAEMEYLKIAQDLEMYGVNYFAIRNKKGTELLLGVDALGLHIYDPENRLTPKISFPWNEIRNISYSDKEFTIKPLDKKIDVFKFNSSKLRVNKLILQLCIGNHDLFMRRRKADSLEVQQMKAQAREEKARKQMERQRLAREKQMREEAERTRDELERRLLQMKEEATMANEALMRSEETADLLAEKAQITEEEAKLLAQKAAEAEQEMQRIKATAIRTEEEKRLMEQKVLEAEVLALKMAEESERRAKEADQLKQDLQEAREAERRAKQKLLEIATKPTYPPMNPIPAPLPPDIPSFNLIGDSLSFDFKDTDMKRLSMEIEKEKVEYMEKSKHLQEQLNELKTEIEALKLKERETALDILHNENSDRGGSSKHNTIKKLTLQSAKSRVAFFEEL
UniProt P15311: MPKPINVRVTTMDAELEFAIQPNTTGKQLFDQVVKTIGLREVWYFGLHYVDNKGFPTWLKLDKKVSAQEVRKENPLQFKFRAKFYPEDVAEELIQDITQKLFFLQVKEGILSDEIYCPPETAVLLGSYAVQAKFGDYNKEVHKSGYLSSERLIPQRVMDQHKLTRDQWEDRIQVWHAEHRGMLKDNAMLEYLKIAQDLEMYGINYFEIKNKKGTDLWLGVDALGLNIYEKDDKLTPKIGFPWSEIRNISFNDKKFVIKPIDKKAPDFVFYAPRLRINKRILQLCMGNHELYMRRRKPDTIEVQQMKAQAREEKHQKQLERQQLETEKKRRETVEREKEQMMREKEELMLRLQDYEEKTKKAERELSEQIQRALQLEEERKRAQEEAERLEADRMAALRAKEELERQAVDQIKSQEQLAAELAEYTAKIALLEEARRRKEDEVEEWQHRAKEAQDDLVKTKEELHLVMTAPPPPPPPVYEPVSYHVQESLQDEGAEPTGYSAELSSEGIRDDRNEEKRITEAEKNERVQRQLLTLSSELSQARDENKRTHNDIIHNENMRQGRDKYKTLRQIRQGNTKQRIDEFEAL

These are yes or no findings as the source states them, for the method shown. Binding seen in cells or lysates may run through a third protein. A yes stands for co-enrichment or nearness to the bait. Other partners may have been found.

For the experiment, the target named is integrin β3 (human (endogenous in podocytes)) (UniProt P05106). Description: affinity purification with mass spectrometry; human podocyte lysate (25 mM Tris, 150 mM NaCl, 1 mM EDTA, 1% Triton-X) immunoprecipitated 16 h with DynaBeads coated with monoclonal anti-integrin β3 (or β1) antibody; wash 1 M NaCl + 0.1% Tween 20; label-free LC-MS/MS, spectral counting; differential binder if IP counts more than twice those of the other isoform.
In the case of moesin (from UniProt P26038 1-577), the binding entry was “binds”.
Regarding merlin (from UniProt P35240 1-595), the binding result is reported as “binds”.
The same measure for ezrin (from UniProt P15311 1-586): “binds”.
